{
  "source": "patent US20220153786A1",
  "about": "“PEPTIDES FOR PREVENTING BIOFILM FORMATION” (priority 2019, published 2022)",
  "system": "S. epidermidis cultures",
  "experiment": "Confocal fluorescence microscopy (CFM) localisation of FITC-labelled peptide",
  "assay_type": "cell-based, Staphylococcus epidermidis",
  "conditions": "10 μM FITC-labelled peptide, 1, 4 or 24 h",
  "data": [
    {"substance": "KRFKKFFMKLK-FITC (FITC label) [Pseudonajide, FITC-labelled antimicrobial peptide, reference compound]", "values": [
      {"measurement": "localisation of peptide (CFM)", "value": "green fluorescence in the cells but not in the matrix"}
    ]}
  ]
}
